Measurements from paper PMC9652315.
Results are given in words; binding and its absence hold for the method and conditions named. In cells and extracts the contact can be indirect. These calls come from enrichment with a bait or labelling near it, and not all partners need be listed. Tags and fused reporters may be left off the sequences shown.

By UniProt entry, the sequences of proteins in these tests, tags left out.
UniProt P60953: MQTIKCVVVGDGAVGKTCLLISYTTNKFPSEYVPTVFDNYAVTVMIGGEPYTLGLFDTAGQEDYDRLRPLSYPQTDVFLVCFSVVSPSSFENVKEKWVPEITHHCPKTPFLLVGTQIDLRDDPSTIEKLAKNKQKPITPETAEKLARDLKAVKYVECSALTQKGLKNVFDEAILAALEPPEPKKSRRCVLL

Molecular target: T1, pTINCR-HA
T1 sequence: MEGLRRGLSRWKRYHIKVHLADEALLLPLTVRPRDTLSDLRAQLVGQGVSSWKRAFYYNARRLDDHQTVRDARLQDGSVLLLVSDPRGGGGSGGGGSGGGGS
Test: affinity purification with mass spectrometry; 3 mg lysate (50 mM Tris-HCl pH 7.5-8, 150 mM NaCl, 1% Triton X-100) immunoprecipitated with monoclonal HA-tag antibody overnight, Protein A magnetic beads, eluted with HA peptide; LC-MS; CRAPome analysis

binding: binds
Substance: CDC42 (from UniProt P60953 1-191)
